Chains of the proteins cited; added tags and fusions are not shown. Lines headed by an entry give the natural chain unless they say otherwise; changes in a name come on top.
UniProt P00429: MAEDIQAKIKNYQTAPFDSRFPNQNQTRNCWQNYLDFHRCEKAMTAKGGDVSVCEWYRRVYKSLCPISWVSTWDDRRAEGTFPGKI
UniProt P68530: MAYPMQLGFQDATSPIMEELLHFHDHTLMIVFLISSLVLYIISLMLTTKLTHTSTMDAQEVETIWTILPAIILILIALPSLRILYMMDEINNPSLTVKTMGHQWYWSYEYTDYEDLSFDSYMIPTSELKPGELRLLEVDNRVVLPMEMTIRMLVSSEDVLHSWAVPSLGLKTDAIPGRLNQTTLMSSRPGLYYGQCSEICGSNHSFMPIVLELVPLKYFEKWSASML
UniProt P00004: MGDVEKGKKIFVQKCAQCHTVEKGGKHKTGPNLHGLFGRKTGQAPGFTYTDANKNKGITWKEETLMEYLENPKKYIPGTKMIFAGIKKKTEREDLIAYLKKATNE

According to paper PMC5286356:

Columns and labels:
[1] = target: subunit VIb of bovine cytochrome c oxidase (bovine) (UniProt P00429); assay: crystal structure; co-crystallised by the batch-wise method at 277 K; 15 mM sodium phosphate pH 8.0, DM and FOM, Cyt.c/CcO molar ratio 1.2, ~5% PEG 4000; ferri-Cyt.c and oxidized CcO; crystals soaked with 50 uM Cyt.c; refined at 2.0 A; both purified
[2] = target: subunit II of bovine cytochrome c oxidase (bovine) (UniProt P68530); assay: as above

## horse heart cytochrome c (from UniProt P00004 1-105)
[1]
  binding: binds
[2]
  binding: binds

No constants are given. Whether binding was seen depends on the method and setting. Binding calls can cover weak binding; strength is not graded here.
